Laboratory results: PubChem BioAssay AID743121 (NCATS, 2013)
Here is a random part of about 26,000 deposited reagents. Of all reagents, 167 (0.63%) are marked active. 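Calls are per gene from RSA p-values that are not deposited; an individual active-marked siRNA can sensitise only weakly.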 Unmarked entries are inactive. The numbers tell different reagents against one gene apart. Not all columns of the deposit are shown.

Purpose: 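Knock-downs that sensitise breast cancer cells to camptothecin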 (primary screen)
Cell system: MDA-MB-231 cells, a human breast cancer line
Reagents: single siRNA against human genes, 20 nM siRNA (0.8 pmol per well)
Time to read-out: 120 h (drug added 48 h after transfection, read 72 h later)
Treatment: camptothecin 20 nM (about EC30) for 72 h; vehicle 0.1% DMSO in parallel plates
Read-out: 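Cell viability by ATP luminescence (CellTiter-Glo) as % of non-targeting siRNA wells, and the log2 ratio of viability without drug over viability with camptothecin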
Scale: log2 vehicle/camptothecin viability: higher = stronger sensitisation to camptothecin
Rule for the call: 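Each gene scored by redundant siRNA activity (RSA) over its individual siRNA ratios; a gene is called active at p < 0.001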

The opening 2 records, to show the layout:
HOXA1 (GeneID 3198) #1
- log2 vehicle/camptothecin viability: 3.4 (active)

HOXA1 (GeneID 3198) #2
- log2 vehicle/camptothecin viability: 0.092 (active)

The list itself, from the start:
HOXA1 (GeneID 3198) #1
- log2 vehicle/camptothecin viability: 3.4 (active)

HOXA1 (GeneID 3198) #2
- log2 vehicle/camptothecin viability: 0.092 (active)

HOXA1 (GeneID 3198) #3
- log2 vehicle/camptothecin viability: 0.218 (active)

HOXA1 (GeneID 3198) #4
- log2 vehicle/camptothecin viability: -0.101 (active)

DHRS13 (GeneID 147015) #1
- log2 vehicle/camptothecin viability: 0.177

DHRS13 (GeneID 147015) #2
- log2 vehicle/camptothecin viability: 0.179

DHRS13 (GeneID 147015) #3
- log2 vehicle/camptothecin viability: -0.325

DHRS13 (GeneID 147015) #4
- log2 vehicle/camptothecin viability: 0.121

CSNK2A2 (GeneID 1459) #1
- log2 vehicle/camptothecin viability: -0.561

CSNK2A2 (GeneID 1459) #2
- log2 vehicle/camptothecin viability: -0.156

CSNK2A2 (GeneID 1459) #3
- log2 vehicle/camptothecin viability: 0.207

CSNK2A2 (GeneID 1459) #4
- log2 vehicle/camptothecin viability: -0.228

RABL2B (GeneID 11158) #1
- log2 vehicle/camptothecin viability: -0.0098

RABL2B (GeneID 11158) #2
- log2 vehicle/camptothecin viability: -0.214

RABL2B (GeneID 11158) #3
- log2 vehicle/camptothecin viability: -0.0747

RABL2B (GeneID 11158) #4
- log2 vehicle/camptothecin viability: 0.21

KCNK15 (GeneID 60598) #1
- log2 vehicle/camptothecin viability: -0.0997

KCNK15 (GeneID 60598) #2
- log2 vehicle/camptothecin viability: -0.322

KCNK15 (GeneID 60598) #3
- log2 vehicle/camptothecin viability: 0.15

CMKLR1 (GeneID 1240) #1
- log2 vehicle/camptothecin viability: -0.0559

CMKLR1 (GeneID 1240) #2
- log2 vehicle/camptothecin viability: -0.181

CMKLR1 (GeneID 1240) #3
- log2 vehicle/camptothecin viability: -0.03

CMKLR1 (GeneID 1240) #4
- log2 vehicle/camptothecin viability: -0.184

BAX (GeneID 581) #1
- log2 vehicle/camptothecin viability: 0.36

BAX (GeneID 581) #2
- log2 vehicle/camptothecin viability: -0.176

BAX (GeneID 581) #3
- log2 vehicle/camptothecin viability: -0.232

GCLC (GeneID 2729) #1
- log2 vehicle/camptothecin viability: -0.107

GCLC (GeneID 2729) #2
- log2 vehicle/camptothecin viability: -0.14

GCLC (GeneID 2729) #3
- log2 vehicle/camptothecin viability: -0.375

ATP2B4 (GeneID 493) #1
- log2 vehicle/camptothecin viability: 0.00302

ATP2B4 (GeneID 493) #2
- log2 vehicle/camptothecin viability: -0.288

ATP2B4 (GeneID 493) #3
- log2 vehicle/camptothecin viability: 0.206

TMPRSS5 (GeneID 80975) #1
- log2 vehicle/camptothecin viability: -0.379

TMPRSS5 (GeneID 80975) #2
- log2 vehicle/camptothecin viability: -0.0516

NEFH (GeneID 4744) #1
- log2 vehicle/camptothecin viability: -0.303

NEFH (GeneID 4744) #2
- log2 vehicle/camptothecin viability: -0.0962

NEFH (GeneID 4744) #3
- log2 vehicle/camptothecin viability: -0.249

NEFH (GeneID 4744) #4
- log2 vehicle/camptothecin viability: -0.535
